Data taken from article PMC12248590.
No constants are given. Whether binding was seen depends on the method and setting. In cells and extracts the contact can be indirect. Some results given as binding are weak or reduced against the parent protein; the word gives no strength.

The chains behind the UniProt entries cited, without tags or fusion partners. Residues count along the entry.
UniProt P30405, residues 30-207: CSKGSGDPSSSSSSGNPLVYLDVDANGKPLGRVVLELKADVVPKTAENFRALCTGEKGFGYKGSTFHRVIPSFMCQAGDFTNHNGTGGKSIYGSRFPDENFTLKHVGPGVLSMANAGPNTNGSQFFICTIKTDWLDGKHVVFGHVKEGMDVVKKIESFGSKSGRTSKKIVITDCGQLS

Target: T1, hexokinase 2 (human (endogenous in Beas-2B)) (UniProt P52789)
T1 sequence: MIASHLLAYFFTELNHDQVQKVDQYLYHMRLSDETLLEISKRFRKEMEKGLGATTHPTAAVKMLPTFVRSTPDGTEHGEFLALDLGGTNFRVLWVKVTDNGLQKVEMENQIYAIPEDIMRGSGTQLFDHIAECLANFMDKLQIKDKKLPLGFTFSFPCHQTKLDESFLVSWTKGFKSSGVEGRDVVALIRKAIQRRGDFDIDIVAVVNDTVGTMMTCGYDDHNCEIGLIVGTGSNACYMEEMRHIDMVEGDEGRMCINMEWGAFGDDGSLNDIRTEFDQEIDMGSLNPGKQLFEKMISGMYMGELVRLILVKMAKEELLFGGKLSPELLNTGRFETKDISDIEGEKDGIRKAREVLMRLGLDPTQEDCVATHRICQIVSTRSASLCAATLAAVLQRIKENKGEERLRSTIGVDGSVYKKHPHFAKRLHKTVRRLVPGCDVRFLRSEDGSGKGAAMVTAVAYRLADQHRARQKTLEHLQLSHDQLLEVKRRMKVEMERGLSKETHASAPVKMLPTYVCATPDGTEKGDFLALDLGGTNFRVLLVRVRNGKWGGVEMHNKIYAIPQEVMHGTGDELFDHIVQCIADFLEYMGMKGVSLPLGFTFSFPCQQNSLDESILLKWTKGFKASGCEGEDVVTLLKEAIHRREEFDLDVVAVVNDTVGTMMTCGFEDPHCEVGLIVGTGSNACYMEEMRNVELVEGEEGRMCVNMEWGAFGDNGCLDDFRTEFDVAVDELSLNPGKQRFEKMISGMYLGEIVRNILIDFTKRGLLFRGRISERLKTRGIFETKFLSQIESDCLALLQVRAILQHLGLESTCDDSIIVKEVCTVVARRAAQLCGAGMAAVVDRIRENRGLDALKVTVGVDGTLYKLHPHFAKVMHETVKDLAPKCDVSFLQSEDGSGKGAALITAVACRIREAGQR
Assay: co-IP; Beas-2B cells exposed to IL-1β (20 ng/mL) for 48 h, NP-40 lysis buffer; pre-cleared lysate incubated overnight at 4 °C with anti-HK2 or anti-IgG, protein G magnetic beads; eluate analysed by western blotting

binding: binds
Substance: peptidylprolyl isomerase F (from UniProt P30405 30-207) (enzyme)
